Laboratory results published in patent publication US8115197B2, “Organic semiconductor material, organic semiconductor thin film and organic semiconductor device” (Sony Corporation, priority 2005, dated 2012).

Experiment: organic field-effect transistor test product, channel forming region spin-coated from solution: mobility in the saturation region
Details: concentration 5 g/lit., room temperature; for mobility in the saturation region: spin coating of chloroform solution

SMILES | mobility in the saturation region | also measured
CCCCc1c(C(=O)OC)c(C(=O)OC)c(CCCC)c2cc3c(CCCC)c4cc5c(CC)c(CC)c(CC)c(CC)c5cc4c(CCCC)c3cc12 [example 1, 2,3-bis methoxycarbonyl-1,4,6,13-tetrabutyl-8,9,10,11-tetraethyl pentacene] | 5.0×10^−5 to 1.2×10^−3 cm^2·V^−1·second^−1 | 
CCCc1c(C(=O)OC)c(C(=O)OC)c(CCC)c2cc3c(CCC)c4cc5c(CC)c(CC)c(CC)c(CC)c5cc4c(CCC)c3cc12 [example 3, 2,3-bis methoxycarbonyl-8,9,10,11-tetra ethyl-1,4,6,13-tetra propyl pentacene] | 9.0×10^−6 cm^2·V^−1·second^−1 | 
CCCCc1c(C(=O)OC)c(C(=O)OC)c(CCCC)c2cc3c(CCCC)c4cc5ccccc5cc4c(CCCC)c3cc12 [example 4, 2,3-bis methoxycarbonyl-1,4,6,13-tetrabuyl pentacene] | 9.0×10^−5 cm^2·V^−1·second^−1 | 
CCCCc1cc(C#N)c(CCCC)c2cc3c(CCCC)c4cc5c(CC)c(CC)c(CC)c(CC)c5cc4c(CCCC)c3cc12 [example 5, 2-cyano-1,4,6,13-tetrabutyl-8,9,10,11-tetraethyl pentacene] | 1.7×10^−3 cm^2·V^−1·second^−1 | 
CCCc1c(CCC)c(CCC)c2cc3c(CCC)c4ccccc4c(CCC)c3cc2c1CCC [example 6] |  | mobility in the saturated region (spin coating of mesitylene solution): 0.01 cm^2 V^−1 second^−1
CCCc1c(C(=O)OC)c(C(=O)OC)c(CCC)c2cc3c(CCC)c4ccccc4c(CCC)c3cc12 [example 7] |  | mobility in the saturated region (spin coating of toluene solution): 2.0×10^−5 cm^2 V^−1 second^−1
